# According to patent publication US8741944B2, “Anti-infective agents against intracellular pathogens” (priority 2007, dated 2014):
# Columns and labels:
# [1] = tested on: MDA-MB-435 (Breast Cancer); assay: NCI DTP tumor cell line screen (SRB), MDA-MB-435
# TK-10 (Renal Cancer) = assay: NCI DTP tumor cell line screen (SRB), TK-10
# RXF 393 (Renal Cancer) = assay: NCI DTP tumor cell line screen (SRB), RXF 393
# ACHN (Renal Cancer) = assay: NCI DTP tumor cell line screen (SRB), ACHN
# [2] = tested on: NCI-H522 (Non-Small Cell Lung Cancer)
# LOX IMVI (Melanoma) = assay: NCI DTP tumor cell line screen (SRB), LOX IMVI
# HCT-15 (Colon Cancer) = assay: NCI DTP tumor cell line screen (SRB), HCT-15
# OVCAR-8 (Ovarian Cancer) = assay: NCI DTP tumor cell line screen (SRB), OVCAR-8
# [3] = tested on: HOP-92 (Non-Small Cell Lung Cancer); assay: NCI DTP tumor cell line screen (SRB), HOP-92
# UACC-62 (Melanoma) = assay: NCI DTP tumor cell line screen (SRB), UACC-62
# [4] = tested on: HOP-62 (Non-Small Cell Lung Cancer); assay: NCI DTP tumor cell line screen (SRB), HOP-62
# OVCAR-3 (Ovarian Cancer) = assay: NCI DTP tumor cell line screen (SRB), OVCAR-3
# KM12 (Colon Cancer) = assay: NCI DTP tumor cell line screen (SRB), KM12
# SR (Leukemia) = assay: NCI DTP tumor cell line screen (SRB), SR
# SN12C (Renal Cancer) = assay: NCI DTP tumor cell line screen (SRB), SN12C
# DU-145 (Prostate Cancer) = assay: NCI DTP tumor cell line screen (SRB), DU-145
# MOLT-4 (Leukemia) = assay: NCI DTP tumor cell line screen (SRB), MOLT-4
# SK-MEL-28 (Melanoma) = assay: NCI DTP tumor cell line screen (SRB), SK-MEL-28
substance,measurement,setting,value
4-[5-(2-Phenanthrenyl)-3-(trifluoromethyl)-1H-pyrazol-1-yl]-phenyl -guanidine [Compound 71],Mean Optical Densities,"[1]; MDA-MB-435, Log10 Concentration −4.0",0.295
same,Mean Optical Densities,"[1]; MDA-MB-435, Log10 Concentration −5.0",−0.073
same,Mean Optical Densities,"[1]; MDA-MB-435, Log10 Concentration −6.0",1.444
same,Mean Optical Densities,"[1]; MDA-MB-435, Log10 Concentration −7.0",1.382
same,Mean Optical Densities,"[1]; MDA-MB-435, Log10 Concentration −8.0",1.376
same,Mean Optical Densities,"TK-10 (Renal Cancer); TK-10, Log10 Concentration −4.0",0.245
same,Mean Optical Densities,"TK-10 (Renal Cancer); TK-10, Log10 Concentration −5.0",−0.021
same,Mean Optical Densities,"TK-10 (Renal Cancer); TK-10, Log10 Concentration −6.0",0.998
same,Mean Optical Densities,"TK-10 (Renal Cancer); TK-10, Log10 Concentration −7.0",1.087
same,Mean Optical Densities,"RXF 393 (Renal Cancer); RXF 383, Log10 Concentration −4.0",0.385
same,Mean Optical Densities,"RXF 393 (Renal Cancer); RXF 383, Log10 Concentration −5.0",0.156
same,Mean Optical Densities,"RXF 393 (Renal Cancer); RXF 383, Log10 Concentration −6.0",0.629
same,Mean Optical Densities,"RXF 393 (Renal Cancer); RXF 383, Log10 Concentration −7.0",0.629
same,Mean Optical Densities,"RXF 393 (Renal Cancer); RXF 383, Log10 Concentration −8.0",0.582
same,Mean Optical Densities,ACHN (Renal Cancer); Log10 Concentration −4.0,0.291
same,Mean Optical Densities,ACHN (Renal Cancer); Log10 Concentration −5.0,0.034
same,Mean Optical Densities,ACHN (Renal Cancer); Log10 Concentration −6.0,0.964
same,Mean Optical Densities,ACHN (Renal Cancer); Log10 Concentration −7.0,0.902
same,Mean Optical Densities,ACHN (Renal Cancer); Log10 Concentration −8.0,0.898
same,Mean Optical Densities,"[2]; NCI-H522, Log10 Concentration −4.0",0.439
same,Mean Optical Densities,"[2]; NCI-H522, Log10 Concentration −5.0",0.037
same,Mean Optical Densities,"[2]; NCI-H522, Log10 Concentration −6.0",1.471
same,Mean Optical Densities,"[2]; NCI-H522, Log10 Concentration −7.0",1.558
same,Mean Optical Densities,"[2]; NCI-H522, Log10 Concentration −8.0",1.509
same,Mean Optical Densities,LOX IMVI (Melanoma); Log10 Concentration −4.0,0.165
same,Mean Optical Densities,LOX IMVI (Melanoma); Log10 Concentration −5.0,0.008
same,Mean Optical Densities,LOX IMVI (Melanoma); Log10 Concentration −6.0,0.935
same,Mean Optical Densities,LOX IMVI (Melanoma); Log10 Concentration −8.0,0.948
same,Mean Optical Densities,"HCT-15 (Colon Cancer); HCT-15, Log10 Concentration −4.0",0.082
same,Mean Optical Densities,"HCT-15 (Colon Cancer); HCT-15, Log10 Concentration −5.0",−0.003
same,Mean Optical Densities,"HCT-15 (Colon Cancer); HCT-15, Log10 Concentration −6.0",0.797
same,Mean Optical Densities,"HCT-15 (Colon Cancer); HCT-15, Log10 Concentration −7.0",0.779
same,Mean Optical Densities,"HCT-15 (Colon Cancer); HCT-15, Log10 Concentration −8.0",0.669
same,Mean Optical Densities,"OVCAR-8 (Ovarian Cancer); OVCAR 8, Log10 Concentration −4.0",0.126
same,Mean Optical Densities,"OVCAR-8 (Ovarian Cancer); OVCAR 8, Log10 Concentration −5.0",−0.001
same,Mean Optical Densities,"OVCAR-8 (Ovarian Cancer); OVCAR 8, Log10 Concentration −6.0",0.934
same,Mean Optical Densities,"OVCAR-8 (Ovarian Cancer); OVCAR 8, Log10 Concentration −7.0",0.946
same,Mean Optical Densities,"OVCAR-8 (Ovarian Cancer); OVCAR 8, Log10 Concentration −8.0",0.923
same,Mean Optical Densities,"[3]; HOP-92, Log10 Concentration −4.0",0.767
same,Mean Optical Densities,"[3]; HOP-92, Log10 Concentration −5.0",0.089
same,Mean Optical Densities,"[3]; HOP-92, Log10 Concentration −6.0",1.361
same,Mean Optical Densities,"[3]; HOP-92, Log10 Concentration −7.0",1.541
same,Mean Optical Densities,"[3]; HOP-92, Log10 Concentration −8.0",1.567
same,Mean Optical Densities,"UACC-62 (Melanoma); UACC-62, Log10 Concentration −4.0",0.272
same,Mean Optical Densities,"UACC-62 (Melanoma); UACC-62, Log10 Concentration −5.0",−0.041
same,Mean Optical Densities,"UACC-62 (Melanoma); UACC-62, Log10 Concentration −6.0",1.301
same,Mean Optical Densities,"UACC-62 (Melanoma); UACC-62, Log10 Concentration −7.0",1.338
same,Mean Optical Densities,"UACC-62 (Melanoma); UACC-62, Log10 Concentration −8.0",1.323
same,Mean Optical Densities,"[4]; HOP-62, Log10 Concentration −4.0",0.329
same,Mean Optical Densities,"[4]; HOP-62, Log10 Concentration −5.0",0.011
same,Mean Optical Densities,"[4]; HOP-62, Log10 Concentration −6.0",1.255
same,Mean Optical Densities,"[4]; HOP-62, Log10 Concentration −7.0",1.267
same,Mean Optical Densities,"[4]; HOP-62, Log10 Concentration −8.0",1.285
same,Mean Optical Densities,"OVCAR-3 (Ovarian Cancer); OVCAR-3, Log10 Concentration −4.0",0.131
same,Mean Optical Densities,"OVCAR-3 (Ovarian Cancer); OVCAR-3, Log10 Concentration −5.0",−0.043
same,Mean Optical Densities,"OVCAR-3 (Ovarian Cancer); OVCAR-3, Log10 Concentration −6.0",0.770
same,Mean Optical Densities,"OVCAR-3 (Ovarian Cancer); OVCAR-3, Log10 Concentration −7.0",0.792
same,Mean Optical Densities,"OVCAR-3 (Ovarian Cancer); OVCAR-3, Log10 Concentration −8.0",0.833
same,Mean Optical Densities,"KM12 (Colon Cancer); KM12, Log10 Concentration −4.0",0.307
same,Mean Optical Densities,"KM12 (Colon Cancer); KM12, Log10 Concentration −5.0",0.013
same,Mean Optical Densities,"KM12 (Colon Cancer); KM12, Log10 Concentration −6.0",1.777
same,Mean Optical Densities,"KM12 (Colon Cancer); KM12, Log10 Concentration −7.0",1.832
same,Mean Optical Densities,"KM12 (Colon Cancer); KM12, Log10 Concentration −8.0",1.867
same,Mean Optical Densities,SR (Leukemia); Log10 Concentration −4.0,0.287
same,Mean Optical Densities,SR (Leukemia); Log10 Concentration −5.0,0.234
same,Mean Optical Densities,SR (Leukemia); Log10 Concentration −6.0,0.254
same,Mean Optical Densities,SR (Leukemia); Log10 Concentration −7.0,0.583
same,Mean Optical Densities,SR (Leukemia); Log10 Concentration −8.0,0.688
same,Mean Optical Densities,SN12C (Renal Cancer); Log10 Concentration −4.0,0.224
same,Mean Optical Densities,SN12C (Renal Cancer); Log10 Concentration −5.0,−0.014
same,Mean Optical Densities,SN12C (Renal Cancer); Log10 Concentration −6.0,1.045
same,Mean Optical Densities,SN12C (Renal Cancer); Log10 Concentration −7.0,0.998
same,Mean Optical Densities,SN12C (Renal Cancer); Log10 Concentration −8.0,1.050
same,Mean Optical Densities,"DU-145 (Prostate Cancer); DU-145, Log10 Concentration −4.0",−0.019
same,Mean Optical Densities,"DU-145 (Prostate Cancer); DU-145, Log10 Concentration −5.0",−0.074
same,Mean Optical Densities,"DU-145 (Prostate Cancer); DU-145, Log10 Concentration −6.0",0.760
same,Mean Optical Densities,"DU-145 (Prostate Cancer); DU-145, Log10 Concentration −7.0",0.767
same,Mean Optical Densities,"DU-145 (Prostate Cancer); DU-145, Log10 Concentration −8.0",0.694
same,Mean Optical Densities,"MOLT-4 (Leukemia); MOLT-4, Log10 Concentration −4.0",0.143
same,Mean Optical Densities,"MOLT-4 (Leukemia); MOLT-4, Log10 Concentration −5.0",0.143
same,Mean Optical Densities,"MOLT-4 (Leukemia); MOLT-4, Log10 Concentration −6.0",0.461
same,Mean Optical Densities,"MOLT-4 (Leukemia); MOLT-4, Log10 Concentration −7.0",0.736
same,Mean Optical Densities,"MOLT-4 (Leukemia); MOLT-4, Log10 Concentration −8.0",0.833
same,Mean Optical Densities,"SK-MEL-28 (Melanoma); SK-MEL-28, Log10 Concentration −4.0",0.248
same,Mean Optical Densities,"SK-MEL-28 (Melanoma); SK-MEL-28, Log10 Concentration −5.0",−0.002
same,Mean Optical Densities,"SK-MEL-28 (Melanoma); SK-MEL-28, Log10 Concentration −6.0",1.367
same,Mean Optical Densities,"SK-MEL-28 (Melanoma); SK-MEL-28, Log10 Concentration −7.0",1.408
same,Mean Optical Densities,"SK-MEL-28 (Melanoma); SK-MEL-28, Log10 Concentration −8.0",1.439

# Read-outs that look alike come from different tables or passages of the source.
